# Laboratory results published in paper PMC11598967.
# Chains of the proteins cited; added tags and fusions are not shown.
# UniProt P49951: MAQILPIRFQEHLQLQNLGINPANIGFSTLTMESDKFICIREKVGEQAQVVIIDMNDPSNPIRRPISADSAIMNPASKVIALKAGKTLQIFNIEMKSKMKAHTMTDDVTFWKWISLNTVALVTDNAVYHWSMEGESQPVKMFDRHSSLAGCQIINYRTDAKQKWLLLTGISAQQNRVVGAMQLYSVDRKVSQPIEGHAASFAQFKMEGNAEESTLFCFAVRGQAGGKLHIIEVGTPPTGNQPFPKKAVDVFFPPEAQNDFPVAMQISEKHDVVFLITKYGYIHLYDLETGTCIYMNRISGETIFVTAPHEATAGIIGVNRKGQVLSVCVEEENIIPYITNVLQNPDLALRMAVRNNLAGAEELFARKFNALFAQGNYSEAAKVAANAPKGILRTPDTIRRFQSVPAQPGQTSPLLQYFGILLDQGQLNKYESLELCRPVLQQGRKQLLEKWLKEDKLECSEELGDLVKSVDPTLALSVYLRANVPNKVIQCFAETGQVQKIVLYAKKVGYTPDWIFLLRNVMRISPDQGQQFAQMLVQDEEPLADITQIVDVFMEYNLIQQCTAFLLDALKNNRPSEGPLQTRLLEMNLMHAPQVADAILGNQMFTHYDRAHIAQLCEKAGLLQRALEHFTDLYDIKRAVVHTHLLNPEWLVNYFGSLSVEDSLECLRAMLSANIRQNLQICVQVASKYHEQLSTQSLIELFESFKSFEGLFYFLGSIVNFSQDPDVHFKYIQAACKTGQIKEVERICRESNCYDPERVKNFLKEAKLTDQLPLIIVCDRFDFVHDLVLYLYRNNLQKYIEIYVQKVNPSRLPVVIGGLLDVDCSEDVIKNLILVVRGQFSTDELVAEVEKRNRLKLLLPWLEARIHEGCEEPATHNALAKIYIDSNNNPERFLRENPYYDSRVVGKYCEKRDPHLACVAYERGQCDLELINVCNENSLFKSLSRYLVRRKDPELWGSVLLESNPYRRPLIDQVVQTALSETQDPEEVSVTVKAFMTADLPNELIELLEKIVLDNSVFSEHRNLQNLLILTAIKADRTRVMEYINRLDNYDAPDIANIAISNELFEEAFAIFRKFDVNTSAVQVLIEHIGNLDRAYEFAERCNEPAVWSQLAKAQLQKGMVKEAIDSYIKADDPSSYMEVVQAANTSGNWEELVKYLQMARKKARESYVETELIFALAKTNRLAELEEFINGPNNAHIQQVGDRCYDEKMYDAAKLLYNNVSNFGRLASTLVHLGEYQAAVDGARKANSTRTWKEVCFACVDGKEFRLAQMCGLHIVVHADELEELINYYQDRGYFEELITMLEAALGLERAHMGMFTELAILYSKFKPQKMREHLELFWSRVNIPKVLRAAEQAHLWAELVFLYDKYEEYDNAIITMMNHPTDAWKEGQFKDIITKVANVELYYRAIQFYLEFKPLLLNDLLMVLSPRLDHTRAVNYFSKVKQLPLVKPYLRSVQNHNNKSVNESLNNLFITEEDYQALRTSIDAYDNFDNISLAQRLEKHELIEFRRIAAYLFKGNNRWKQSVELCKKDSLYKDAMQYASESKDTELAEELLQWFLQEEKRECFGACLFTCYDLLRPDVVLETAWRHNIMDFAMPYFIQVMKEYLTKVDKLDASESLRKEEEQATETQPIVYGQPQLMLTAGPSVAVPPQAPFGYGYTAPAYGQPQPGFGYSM
# Results are given in words; binding and its absence hold for the method and conditions named. In cells and extracts the contact can be indirect. Some entries that bind do so weakly or less than the wild type.
# Molecular target: Clathrin heavy chain protein (CHC) (bovine (endogenous in MDBK)) (UniProt P49951)
# Assay: co-IP; endogenous proteins in MDBK cell lysate (RIPA buffer); 1 ug primary antibody (anti-HSPA4, anti-CHC or IgG) in 400 uL lysate overnight at 4 C, protein A+G agarose 3 h at 4 C, five PBS washes, Western blot
substance,measurement,value
Heat shock cognate protein 70 (HSC70) (from UniProt P19120 1-650),binding,binds
